From article PMC7819943, “Rice protein-binding microarrays: a tool to detect cis-acting elements near promoter regions in rice” come the findings set out here.

The list shows a part of the results.

This test deals with T1, OsSMF1 (Oryza sativa, UniProt Q6ZLB0 1-436).
T1 sequence: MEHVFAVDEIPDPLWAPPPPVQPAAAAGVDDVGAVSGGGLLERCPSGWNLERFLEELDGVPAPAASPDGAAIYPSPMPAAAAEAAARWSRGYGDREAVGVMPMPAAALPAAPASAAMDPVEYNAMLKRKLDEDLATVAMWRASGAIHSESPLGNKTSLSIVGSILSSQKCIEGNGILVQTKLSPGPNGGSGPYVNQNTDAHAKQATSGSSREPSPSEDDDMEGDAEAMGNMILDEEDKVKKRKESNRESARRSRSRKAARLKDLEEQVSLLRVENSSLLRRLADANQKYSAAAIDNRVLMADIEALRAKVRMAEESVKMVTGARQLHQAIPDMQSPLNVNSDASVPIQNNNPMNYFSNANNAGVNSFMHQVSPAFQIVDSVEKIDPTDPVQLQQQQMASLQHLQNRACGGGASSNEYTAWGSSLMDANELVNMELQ
The experiment in a line: protein-binding microarray (RPBM); PBS, 2% BSA, 51.3 ng/ul salmon testes DNA, 50 uM zinc acetate, 200 nM TF, 25 C, 1 h; high values mean tight binding. The settings on record: protein: recombinant; tags: N-terminal polyhistidine and DsRed monomer fusion (pET32a); chain copies: 2; label: CyDye5-dUTP incorporated in the synthesized complementary strand; 3' TTTTT single-stranded linker to array surface; dsDNA, one strand shown. In a few lines: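 For the binding signal, per-feature fluorescence intensity was read in arbitrary units on an Axon 4000B scanner. Before scanning, a 2% BSA-blocked custom Agilent array made double-stranded with Cy5-dUTP was washed after 1 h at 25 °C with 200 nM protein and 50 µM zinc acetate. The proteins were Ni–NTA-purified transcription factors with N-terminal polyhistidine and DsRed fusions, expressed in E. coli BL21-CodonPlus.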
In the case of “GATCAAGCTAGCTAGTGGTACATGTACGTCCGTACGGTGCCGGAGTCACCTAGTGCAG”, the binding signal is 7000 fluorescence intensity (a.u.).
With “CCAGCTGTACGTGTGTCCCACCGTGGCGGCTATTTCGTCACGGAGTCACCTAGTGCAG”, the binding signal is 4810 fluorescence intensity (a.u.).
In the case of “CTCGTTGGTGATGACAGTGACGGAATCCCCATGTTGACCTCGGAGTCACCTAGTGCAG” it was 4130 fluorescence intensity (a.u.); in that of “CCAAAGCTGTGCTACCACGAGAGCCCACGTCATCCCATCCCGGAGTCACCTAGTGCAG”, 22800 fluorescence intensity (a.u.); in that of “ATAAATGTGAGAGCCACATCAGAATCTTCTTCGTTCGTTCCGGAGTCACCTAGTGCAG”, 6400 fluorescence intensity (a.u.).
In the case of “TACGTGACATGCCATCGTGGCGTGCCCACGTGGAAAACAACGGAGTCACCTAGTGCAG” it was 15000 fluorescence intensity (a.u.).
Turning to “TTAAGATTCACATGATGTGTCCTCAGTTAGGTTTATCAGTCGGAGTCACCTAGTGCAG”, the binding signal is 3870 fluorescence intensity (a.u.).
In the case of “GAAATGAATCTGAATACACGTGTTCATGTTTAACTCTAGACGGAGTCACCTAGTGCAG” it was 6300 fluorescence intensity (a.u.); in that of “CGCCGGTGCTGATGCTGATCGATCTTACGTCGCGTCGCGACGGAGTCACCTAGTGCAG”, 3280 fluorescence intensity (a.u.).
For “CTCCTTCCATTTGTACCCACGTCTGCTGTCCATTGACCGGCGGAGTCACCTAGTGCAG”, the binding signal was 6910 fluorescence intensity (a.u.).
Take “ACCTCCTCAATCACACGCACATGTAATAGCTAGTCTAGTGCGGAGTCACCTAGTGCAG”: the binding signal was 3440 fluorescence intensity (a.u.).
Consider “CGAGAGCGAACGGCCGTCTGCCACGTCACTTTCGCCACCCCGGAGTCACCTAGTGCAG”, for which the binding signal was 41900 fluorescence intensity (a.u.).
In the case of “CTCTTACAGTGACCTGATTCATCGACCTGTCACTTGTCTGCGGAGTCACCTAGTGCAG” it was 6850 fluorescence intensity (a.u.).
In the case of “TCTTTCTAGCACTCTGGTCCCACGTGTCATTATCTTAGAACGGAGTCACCTAGTGCAG” it was 11900 fluorescence intensity (a.u.); in that of “TTGCATCCACATATGATGTGGAATGAAGCAGCTGCTCGCACGGAGTCACCTAGTGCAG”, 3670 fluorescence intensity (a.u.).
In the case of “ATGCTCCGGTGGACGTCATCTTCAGGCAAATCAAAACGATCGGAGTCACCTAGTGCAG”, the binding signal is 3400 fluorescence intensity (a.u.).
For “ACCAACTACACACTGACTGACATGTGGTCCCGGTGGGGCCCGGAGTCACCTAGTGCAG”, the binding signal is 4210 fluorescence intensity (a.u.).
In the case of “TTTAATTAACAAAATTATTGGTGACAGAGACCGAATATATCGGAGTCACCTAGTGCAG” it was 3360 fluorescence intensity (a.u.).
For the sequence “GTCTCCCACGTGTCCCATTCGCATCCGATTTGGCAATCTCCGGAGTCACCTAGTGCAG”, the binding signal is 5360 fluorescence intensity (a.u.).
In the case of “GCTCCTCGGTCTCGGCGTTATCGGTGGCGTCACTGTCGTACGGAGTCACCTAGTGCAG” it was 7320 fluorescence intensity (a.u.); in that of “GTGTTCCGCAGCGGCCGGGAGACGCGCCGGCTTGTCCCCTCGGAGTCACCTAGTGCAG”, 42300 fluorescence intensity (a.u.).
In the case of “ATGGATACAAAACCCATACGTGGCGCTTGCATGGCAATTACGGAGTCACCTAGTGCAG” it was 6820 fluorescence intensity (a.u.); in that of “CCCGGGCCTCGCCGCGCCGCGCCACGCCACGCCTCCGCCCCGGAGTCACCTAGTGCAG”, 7580 fluorescence intensity (a.u.); in that of “GTCAAATCATGACGTAATTAGGCTTAAAAGATTTGTCTCGCGGAGTCACCTAGTGCAG”, 10000 fluorescence intensity (a.u.).
In the case of “CACTCCATATTCAATGGAATGCCAGCGAAGGACGTGGTATCGGAGTCACCTAGTGCAG” it was 4400 fluorescence intensity (a.u.); in that of “AGTTTCCATATAAGAACCCAATAATCAAAATTCAAAATAACGGAGTCACCTAGTGCAG”, 33300 fluorescence intensity (a.u.).
For “GGGAGAGAAATAGATGAGGAAGAAGGGTTGGCGGTTGACACGGAGTCACCTAGTGCAG”, the binding signal was 3210 fluorescence intensity (a.u.).
For the sequence “ATATTTAACGGCTGTTGGTTTAGTGTTGTTGTAGGTGACTCGGAGTCACCTAGTGCAG”, the binding signal was 3470 fluorescence intensity (a.u.).
In the case of “TAACAATGGGGAAACTCCTCTAGATATATCACGGTACAAGCGGAGTCACCTAGTGCAG” it was 3240 fluorescence intensity (a.u.).
As for “ATTCTGTTGCGTCATCATGTTCCTGTCTACAGAGCTATACCGGAGTCACCTAGTGCAG”, the binding signal is 8200 fluorescence intensity (a.u.).
On to “CTCTCTCCCTTATCTACGGACTAAGAAACAGATGGTGGCGCGGAGTCACCTAGTGCAG”, for which the binding signal was 3920 fluorescence intensity (a.u.).
Regarding “TCACCGTCGCTGTTCGCCTTTGCACGGACGTCACCACCACCGGAGTCACCTAGTGCAG”, the binding signal was 4220 fluorescence intensity (a.u.).
Take “CTCGCTCCCCGTCGTAGACGTCGCCTTCGCCGTCGCTCTCCGGAGTCACCTAGTGCAG”: the binding signal was 4480 fluorescence intensity (a.u.).
Take “CATCATCATTATCATCAACAACAACATCATCAGCCTTTAGCGGAGTCACCTAGTGCAG”: the binding signal was 4930 fluorescence intensity (a.u.).
Take “CGGGGCTCGATCGTGTGCGATGTGTGTGTGGCGTGGCCGGCGGAGTCACCTAGTGCAG”: the binding signal was 3820 fluorescence intensity (a.u.).
In the case of “GCAATTGCCCGTCACGCCTCGTCTTCCTCGTCGTCTTGCACGGAGTCACCTAGTGCAG” it was 3770 fluorescence intensity (a.u.).
In the case of “CCCATCAACTTGCCTCACTTGAAGCTACAATCAAGAAATCCGGAGTCACCTAGTGCAG” it was 31300 fluorescence intensity (a.u.); in that of “ATTTGATCCTTATTATTAACCGCTGTTGAATTCAGCAAACCGGAGTCACCTAGTGCAG”, 29900 fluorescence intensity (a.u.); in that of “CGCGGGTATACCGTATCGGTACCCATCGTATATCCGAGGACGGAGTCACCTAGTGCAG”, 5100 fluorescence intensity (a.u.).
In the case of “CAGATACAGTCTTCTTCCTGGCGTCCAAGCTGCTCAAGACCGGAGTCACCTAGTGCAG” it was 23500 fluorescence intensity (a.u.); in that of “ACCCATGTGCCCATGCCCGACCCATGCCCGAAAGGGCTATCGGAGTCACCTAGTGCAG”, 3610 fluorescence intensity (a.u.); in that of “TAATCCTGTGTTCCATGCAAGGACTAAGCACATAGAAGTTCGGAGTCACCTAGTGCAG”, 20900 fluorescence intensity (a.u.).
“CGCGCGATTCGCCGCTGCTGTTCATCTTCCAGACAGGAGGCGGAGTCACCTAGTGCAG”: the binding signal is 3840 fluorescence intensity (a.u.).
As for “GGGTGATTGAATCCTTGTCATCTAGTGTAAGGCATCTTTCCGGAGTCACCTAGTGCAG”, the binding signal was 4510 fluorescence intensity (a.u.).
For “CACAATCTGCACGCCATATCTGACTACACATATACAACGCCGGAGTCACCTAGTGCAG”, the binding signal is 3360 fluorescence intensity (a.u.).
In the case of “GGGAGAGGTGGAGACCAGGAGGTGGGGTGGCGGAGGTCATCGGAGTCACCTAGTGCAG” it was 4070 fluorescence intensity (a.u.).
“AATATTATAGTCACATCTTCACAAAATCAGCTACTGTTATCGGAGTCACCTAGTGCAG”: the binding signal is 3430 fluorescence intensity (a.u.).
In the case of “CTAATATAAGTATTCATGTGTTTCTTTAACCCACATTATCCGGAGTCACCTAGTGCAG” it was 3330 fluorescence intensity (a.u.); in that of “CCCAATCCGAACGGGACAGCTGCCCACGTGCGACCCATGTCGGAGTCACCTAGTGCAG”, 4920 fluorescence intensity (a.u.).
In the case of “CAGTAGGGCAAGGCGGTGTCGGCGAGCGCGCGGTGGTGGACGGAGTCACCTAGTGCAG” it was 23400 fluorescence intensity (a.u.); in that of “GAGGCGGTGGAGTGGTGAACACGTCAGTCCGGTGACGTGGCGGAGTCACCTAGTGCAG”, 21400 fluorescence intensity (a.u.); in that of “AATCTTCTTCAAAACGTCATTACAGCCAAAGAAAAGCATGCGGAGTCACCTAGTGCAG”, 3710 fluorescence intensity (a.u.).
In the case of “TATCATCATATAAAGAAGACTGAGGTTGTGGACTTGTCTACGGAGTCACCTAGTGCAG” it was 4580 fluorescence intensity (a.u.); in that of “GCGCAGATCGAGCTTGCATGGGCTGGCTAGCTCCCTGGTACGGAGTCACCTAGTGCAG”, 7710 fluorescence intensity (a.u.).
